Test results taken from patent publication US10525115B2 (Immatics Biotechnologies GmbH, priority 2014, dated 2020).

Legend:
[1] = system: cancer tissues in comparison to non-cancerous tissues and organs; assay: Presentation profile / over-presentation by label-free LC-MS (XPRESIDENT), tumor versus normal tissues, other proliferative diseases; set-up: species or system human; details: other proliferative diseases / organs (other than AML) that over- or exclusively present the peptide; Table 5
[2] = system: primary AML samples; assay: HLA class II ligandome analysis (LC-MS/MS) of primary AML samples; set-up: species or system human; details: HLA class II ligandome, AML patients n=12

| Substance | Proliferative disease and location thereof [1] | Number of positive AMLs [2] |
| --- | --- | --- |
| 464 (GVVHSFSHNVGPGDKYT; listed as Homo sapiens) [compound 464] | liver, hepatocellular carcinoma, cancer, lung, adenocarcinoma | 1 |
| 538 (ESDTSYVSLKAPLT; listed as Homo sapiens) [compound 538] | liver, hepatocellular carcinoma, cancer | 2 |
| 592 (FRIDSVSEGNAGP; listed as Homo sapiens) [compound 592] | pancreas, adenocarcinoma, lipoma | 1 |
| 472 (EKGVRTLTAAAVSGAQP; listed as Homo sapiens) [compound 472] | pancreas, adenocarcinoma, bone, giant cell tumor; of bone | 1 |
| 542 (SDTSYVSLKAPLTKPL; listed as Homo sapiens) [compound 542] | liver, hepatocellular carcinoma, cancer | 2 |
| 565 (IQRDILLEKKKVAQD; listed as Homo sapiens) [compound 565] | stomach, metastatic, liver, hepatic adenoma | 1 |
| 502 (KPGVTTEEIDHAVH; listed as Homo sapiens) [compound 502] | endometrium, adenocarcinoma | 3 |
| 452 (SPDRIFFHLNAVALGDG; listed as Homo sapiens) [compound 452] | liver, hepatocellular carcinoma, cancer | 2 |
| 531 (SRLPIIDVAPLDVGAPD; listed as Homo sapiens) [compound 531] | pancreas, adenocarcinoma, chondrosarcoma | 1 |
| 492 (LPQLVGVSTPLQG; listed as Homo sapiens) [compound 492] | kidney, clear cell renal cell carcinoma, endometrium, adenocarcinoma | 2 |
| 548 (LDFFGNGPPVNYK; listed as Homo sapiens) [compound 548] | lung, non-small cell lung carcinoma, bone, non- ossifying fibroma | 1 |
| 501 (IKPGVTTEEIDHAVH; listed as Homo sapiens) [compound 501] | endometrium, adenocarcinoma | 4 |
| 558 (SPNIVIALSGNKADLA; listed as Homo sapiens) [compound 558] | brain, glioblastoma, endometrium, adenocarcinoma | 3 |
| 504 (GAYFHDDGFLAFPG; listed as Homo sapiens) [compound 504] | pancreas, adenocarcinoma, myometrium, leiomyoma | 1 |
| 465 (KTEEFEVTKTAVAHRP; listed as Homo sapiens) [compound 465] | liver, hepatocellular carcinoma, cancer, lung, adenocarcinoma | 1 |
| 540 (SDTSYVSLKAPLT; listed as Homo sapiens) [compound 540] | liver, hepatocellular carcinoma, cancer | 3 |
| 575 (GGSAAAAAAAAASGG; listed as Homo sapiens) [compound 575] | liver, hepatocellular carcinoma, myometrium, leiomyoma | 1 |
| 453 (EEMRKLQATVQELQKR; listed as Homo sapiens) [compound 453] | lymph node, non-Hodgkin's lymphoma | 1 |

| Substance | Proliferative disease and location thereof [1] | Number of positive AMLs [2] |
| --- | --- | --- |
| 564 (IQRDILLEKKKVAQ; listed as Homo sapiens) [compound 564] | stomach, metastatic, liver, hepatic adenoma | 1 |
| 588 (ASPSESEARFRIDSVSEGNAGPY; listed as Homo sapiens) [compound 588] | pancreas, adenocarcinoma, lipoma | 1 |
| 576 (DNMLLAEGVSGPEK; listed as Homo sapiens) [compound 576] | liver, hepatocellular carcinoma, adrenal gland, adrenal cortical adenoma | 2 |
| 478 (HRSFVDLSGHNLANPHP; listed as Homo sapiens) [compound 478] | brain, glioblastoma, parotid gland, pleomorphic; adenoma | 3 |
| 546 (ALDFFGNGPPVNYKTG; listed as Homo sapiens) [compound 546] | lung, non-small cell lung carcinoma, bone, non- ossifying fibroma | 1 |
| 457 (LEEPLSLQELDTSSG; listed as Homo sapiens) [compound 457] | lymph node, non-Hodgkin's lymphoma | 2 |
| 496 (SDVDLIPMNDHNAYR; listed as Homo sapiens) [compound 496] | kidney, clear cell renal cell carcinoma, endometrium, adenocarcinoma | 1 |
| 509 (GGQVIVAIPKLQTQQ; listed as Homo sapiens) [compound 509] | parathyroid gland, adenoma | 1 |
| 471 (EKGVRTLTAAAVSGAQ; listed as Homo sapiens) [compound 471] | pancreas, adenocarcinoma, bone, giant cell tumor; of bone | 3 |
| 513 (DWGALATISTLEAVRG; listed as Homo sapiens) [compound 513] | lung, non-small cell lung carcinoma, liver, hepatocellular carcinoma | 1 |
| 480 (DSNEFSVIADPRG; listed as Homo sapiens) [compound 480] | liver, hepatocellular carcinoma, cancer, thyroid; gland, nodular hyperplasia | 1 |
| 532 (SRLPIIDVAPLDVGAPDQE; listed as Homo sapiens) [compound 532] | pancreas, adenocarcinoma, chondrosarcoma | 1 |
| 473 (GVRTLTAAAVSGAQ; listed as Homo sapiens) [compound 473] | pancreas, adenocarcinoma, bone, giant cell tumor; of bone | 1 |
| 594 (SEARFRIDSVSEGNAGPY; listed as Homo sapiens) [compound 594] | pancreas, adenocarcinoma, lipoma | 3 |
| 570 (SSPALQPAADHKPGPG; listed as Homo sapiens) [compound 570] | stomach, metastatic, liver, hepatic adenoma | 1 |
| 561 (TPPRLVAPRFLEVETS; listed as Homo sapiens) [compound 561] | stomach, metastatic, non-Hodgkin's lymphoma | 3 |
| 449 (ETPDFQLFKNGVAQEPV; listed as Homo sapiens) [compound 449] | liver, hepatocellular carcinoma, cancer | 1 |
| 523 (LDDNIKTYSDHPEK; listed as Homo sapiens) [compound 523] | kidney, clear cell renal cell carcinoma, liver, hepatocellular carcinoma | 1 |
